Laboratory results taken from patent publication US8975412B2, “Substituted 4-cyano-3-phenyl-4-(pyridin-3-yl)butanoates, processes for preparation thereof and use thereof as herbicides and plant growth regulators” (Bayer Intellectual Property GmbH, priority 2011, dated 2015).
Some entries share one result that the patent states for a list of compounds. Some ranges recur; such a range may be that of the whole group of compounds.

Assays:
[1] = test system: Polygonum convolvulus; experiment: Herbicidal pre-emergence action; type: in vivo; details: pre-emergence method, 0.32 kg of active substance per hectare, scored visually after about 3 weeks
[2] = test system: Setaria virides; experiment: Herbicidal pre-emergence action; type: in vivo; details: pre-emergence method, 0.32 kg of active substance per hectare, scored visually after about 3 weeks
[3] = test system: Echinochloa crus-galli; experiment: Herbicidal pre-emergence action; type: in vivo; details: pre-emergence method, 0.32 kg of active substance per hectare, scored visually after about 3 weeks
[4] = test system: a plurality of harmful plants; experiment: Herbicidal pre-emergence action, greenhouse pot test; type: in vivo, monocotyledonous and dicotyledonous weed plants; details: pre-emergence method, 320 g or less of active substance per hectare, scored visually after about 3 weeks vs untreated controls
[5] = test system: a plurality of harmful plants; experiment: Herbicidal post-emergence action, greenhouse pot test; type: in vivo, monocotyledonous and dicotyledonous weeds; details: post-emergence method, 320 g or less of active substance per hectare, rated visually after about 3 weeks vs untreated controls
[6] = test system: Setaria virides; experiment: Herbicidal post-emergence action; type: in vivo; details: post-emergence method, 0.32 kg of active substance per hectare, rated visually after about 3 weeks
[7] = test system: Alopecurus myosuroides; experiment: Herbicidal pre-emergence action; type: in vivo; details: pre-emergence method, 0.32 kg of active substance per hectare, scored visually after about 3 weeks
[8] = test system: Amaranthus retroflexus; experiment: Herbicidal pre-emergence action; type: in vivo; details: pre-emergence method, 0.32 kg of active substance per hectare, scored visually after about 3 weeks
[9] = test system: Echinochloa crus-galli; experiment: Herbicidal post-emergence action; type: in vivo; details: post-emergence method, 0.32 kg of active substance per hectare, rated visually after about 3 weeks
[10] = test system: Viola tricolor; experiment: Herbicidal pre-emergence action; type: in vivo; details: pre-emergence method, 0.32 kg of active substance per hectare, scored visually after about 3 weeks
[11] = test system: Abutilon theophrasti; experiment: Herbicidal post-emergence action; type: in vivo; details: post-emergence method, 0.32 kg of active substance per hectare, rated visually after about 3 weeks
[12] = test system: Avena fatua; experiment: Herbicidal post-emergence action; type: in vivo; details: post-emergence method, 0.32 kg of active substance per hectare, rated visually after about 3 weeks
[13] = test system: Veronica persica; experiment: Herbicidal pre-emergence action; type: in vivo; details: pre-emergence method, 0.32 kg of active substance per hectare, scored visually after about 3 weeks
[14] = test system: Veronica persica; experiment: Herbicidal post-emergence action; type: in vivo; details: post-emergence method, 0.32 kg of active substance per hectare, rated visually after about 3 weeks
[15] = test system: Amaranthus retroflexus; experiment: Herbicidal post-emergence action; type: in vivo; details: post-emergence method, 0.32 kg of active substance per hectare, rated visually after about 3 weeks
[16] = test system: Viola tricolor virides; experiment: Herbicidal post-emergence action; type: in vivo; details: post-emergence method, 0.32 kg of active substance per hectare, rated visually after about 3 weeks
[17] = test system: Alopecurus myosuroides; experiment: Herbicidal post-emergence action; type: in vivo; details: post-emergence method, 0.32 kg of active substance per hectare, rated visually after about 3 weeks
[18] = test system: Pharbitis purpurea; experiment: Herbicidal post-emergence action; type: in vivo; details: post-emergence method, 0.32 kg of active substance per hectare, rated visually after about 3 weeks
[19] = test system: Cyprus esculentus; experiment: Herbicidal post-emergence action; type: in vivo; details: post-emergence method, 0.32 kg of active substance per hectare, rated visually after about 3 weeks
[20] = test system: Polygonum convolvulus; experiment: Herbicidal post-emergence action; type: in vivo; details: post-emergence method, 0.32 kg of active substance per hectare, rated visually after about 3 weeks

Structure (SMILES) | herbicidal activity [1] | herbicidal activity [2] | herbicidal activity [3] | herbicidal activity [4] | herbicidal activity [5] | herbicidal activity [6] | herbicidal activity [7] | herbicidal activity [8] | herbicidal activity [9] | herbicidal activity [10] | herbicidal activity [11] | herbicidal activity [12] | herbicidal activity [13] | herbicidal activity [14] | herbicidal activity [15] | herbicidal activity [16] | herbicidal activity [17] | herbicidal activity [18] | herbicidal activity [19] | herbicidal activity [20]
COC(=O)CC(c1cccc(F)c1)C(C#N)c1cncc(Br)c1 (racemic) [threo-Ibb1089] | 80-100% | 90-100% | 90-100% |  |  |  |  |  |  |  |  |  |  |  |  |  |  |  |  | 
COC(=O)C[C@@H](c1c(F)cccc1F)[C@H](C#N)c1cncc(Br)c1 (racemic) [erythro-Ibb1106] | 80-100% | 90-100% | 90-100% | 70% to 100 | 70% to 100 | 80-100% | 80-100% | 80-100% | 80-100% | 90-100% | 80-100% | 80-100% | 90-100% |  |  |  |  |  |  | 
COC(=O)C[C@@H](c1ccc(Cl)cc1)[C@@H](C#N)c1cncc(F)c1 (racemic) [threo-Ibb2] |  | 90-100% | 90-100% | 70% to 100 | 70% to 100 | 80-100% | 80-100% |  | 80-100% |  | 80-100% | 80-100% |  | 80-100% | 80-100% | 80-100% | 80-100% |  |  | 
COC(=O)CC(c1c(F)cccc1F)C(C#N)c1cncc(Br)c1 (racemic) [threo-Ibb1106] | 80-100% | 90-100% | 90-100% | 70% to 100 | 70% to 100 | 80-100% | 80-100% | 80-100% | 80-100% | 90-100% | 80-100% | 80-100% | 90-100% | 80-100% |  |  |  | 80-100% |  | 
COC(=O)C[C@@H](c1cc(F)ccc1F)[C@@H](C#N)c1cncc(F)c1 (racemic) [threo-Ibb25] |  |  | 90-100% | 70% to 100 | 70% to 100 | 80-100% |  |  | 80-100% |  | 80-100% | 80-100% |  | 80-100% | 80-100% |  | 80-100% |  | 80-100% | 80-100%
COC(=O)C[C@@H](c1ccccc1)[C@@H](C#N)c1cncc(Br)c1 (racemic) [threo-Ibb1084] |  | 90-100% | 90-100% | 70% to 100 | 70% to 100 | 80-100% |  |  | 80-100% | 90-100% | 80-100% | 80-100% |  |  | 80-100% |  | 80-100% | 80-100% | 80-100% | 80-100%
COC(=O)C[C@@H](c1cc(F)ccc1F)[C@H](C#N)c1cncc(F)c1 (racemic) [erythro-Ibb25] |  |  | 90-100% | 70% to 100 | 70% to 100 | 80-100% |  |  | 80-100% |  |  | 80-100% |  | 80-100% | 80-100% |  | 80-100% |  | 80-100% | 80-100%
COC(=O)C[C@@H](c1cc(F)ccc1F)[C@H](C#N)c1cncc(Br)c1 (racemic) [erythro-Ibb1105] | 80-100% |  |  | 70% to 100 | 70% to 100 | 80-100% |  | 80-100% | 80-100% | 90-100% | 80-100% | 80-100% | 90-100% | 80-100% | 80-100% |  |  |  | 80-100% | 80-100%
COC(=O)C[C@@H](c1cccc(F)c1)[C@@H](C#N)c1cncc(F)c1 (racemic) [threo-Ibb9] |  |  | 90-100% | 70% to 100 | 70% to 100 | 80-100% | 80-100% |  | 80-100% | 90-100% | 80-100% | 80-100% | 90-100% | 80-100% | 80-100% | 80-100% | 80-100% |  |  | 
COC(=O)C[C@@H](c1cccc(Cl)c1)[C@@H](C#N)c1cncc(Br)c1 (racemic) [threo-Ibb1090] |  | 90-100% | 90-100% | 70% to 100 | 70% to 100 | 80-100% | 80-100% |  | 80-100% |  | 80-100% | 80-100% | 90-100% | 80-100% |  | 80-100% | 80-100% | 80-100% |  | 80-100%
COC(=O)CC(c1ccc(Cl)cc1)C(C#N)c1cncc(Br)c1 (stereo not drawn) [Ibb1082, Methyl 4-cyano-4-(5-bromopyridin-3-yl)-3-(4-chlorophenyl)butanoate] |  | 90-100% |  | 70% to 100 | 70% to 100 |  | 80-100% |  |  | 90-100% |  | 80-100% |  | 80-100% | 80-100% | 80-100% |  | 80-100% |  | 80-100%
COC(=O)CC(c1ccc(OC)cc1)C(C#N)c1cncc(Br)c1 (racemic) [threo-Ibb1088] |  | 90-100% |  |  |  | 80-100% |  |  |  | 90-100% | 80-100% |  |  | 80-100% |  |  | 80-100% | 80-100% |  | 
COC(=O)C[C@@H](c1cc(F)ccc1F)[C@@H](C#N)c1cncc(Br)c1 (racemic) [threo-Ibb1105] |  | 90-100% | 90-100% | 70% to 100 | 70% to 100 | 80-100% |  | 80-100% | 80-100% | 90-100% | 80-100% | 80-100% | 90-100% | 80-100% |  | 80-100% | 80-100% | 80-100% | 80-100% | 80-100%
